PubChem BioAssay AID493014 (National Center for Advancing Translational Sciences (NCATS), 2011)
Hit rate of the full screen: of about 340,000 compounds, about 170 (0.05%) were called active. Inconclusive means that the source gave no clear call. Such entries were picked first, then a sample of the others. Calls follow the shape of the dose curve; as a rule, active = well fitted inhibition curve with a large enough effect in the signal ratio, with a control signal flat (not every such curve was filed as active); inconclusive = small, poorly fitted or top-dose-only effect, or effect the other way, or a change in a side signal; inactive = flat fitted curve, though single readings scatter; the % refers to the signal ratio. Potencies beside an inconclusive call are fits to weak or partial responses and may not hold up.

test: qHTS Assay to Find Inhibitors of Chronic Active B-Cell Receptor Signaling; settings: ABC-DLBCL IkBa-CBG/CBR reporter, luminescence ratio (green luciferase fused to IkBa over red control in TMD8 lymphoma cells), 4 h; activity change, negative = inhibition: at 46.1 µM (top of the series) unless noted;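 as to activity change, negative = inhibition: plate controls were basal doxycycline-induced cells for no effect and cells given 10 µM MG132 for full effect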
Method in brief: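 Cell line TMD8 (human ABC DLBCL), stably expressing tet-inducible CBG68-IkBa fusion and CBR; IMDM/0.5% FBS; cpd up to 46 uM; dox induction, 4 h, 37C/5% CO2; dual luminescence; green/red ratio; MG132 control.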
Potency is read from the fitted curve at half-maximal effect.

Structure (SMILES)	activity change, negative = inhibition	Potency
C=CCOc1nc2c(c(=O)n(C)c(=O)n2C)n1Cc1ccccc1Cl	inactive	–
O=C(OCc1c(-c2ccccc2)ncc2ccccc12)c1cccs1	–	inconclusive: 29.1 µM [falling, single point]
COc1cc(O)cc(O)c1C(=O)/C=C/c1ccccc1	–	inconclusive: 12.6 µM [falling, partial curve]
O=C(Nc1ccccc1Cc1ccccc1)c1ccccc1F	inactive	–
Cc1ccc(NC(=O)c2ccc3c(c2)CCN3S(C)(=O)=O)cc1C	inconclusive: -20%	–
CCn1c(C)cs/c1=N\C(=S)Nc1ccccc1C	inconclusive: 4.6%	–
CC1CCc2c(C(=O)NCCN3CCOCC3)csc2C1 (stereo unspecified)	inactive	–
CCOC(=O)C1CCN(CC(C)(C)NS(=O)(=O)c2ccc(C)cc2)CC1	inactive	–
CC(=O)N1CCc2c(sc3c2c(=O)n(-c2ccccc2Cl)c(=O)n3C)C1	inactive	–
Cc1ccc(S(=O)(=O)NCC(=O)N2CCC(C)CC2)cc1	inconclusive: 8.51%	–
O=C(N/N=C/c1cccs1)c1cccnc1	inconclusive: 4.46%	–
CCc1ccc2oc(=O)cc(CN3CCOCC3)c2c1	inconclusive: 2.81%	–
CCOCCCN(C(=O)Nc1ccc(CC)cc1)C1CCN(C(C)=O)CC1	inactive	–
COc1cc(OC)c(C2SCCN2S(=O)(=O)c2ccc(F)cc2)cc1OC (stereo unspecified)	inactive	–
Cc1cc(=O)nc2c3ccccc3n(CC(=O)Nc3ccccc3Br)n12	inconclusive: -27.2%	–
Cc1ccc(C)c(NC(=O)CSc2ncnc3nc[nH]c23)c1	inactive	–
CCCCCCSc1nc2c(c(=O)[nH]c(=O)n2C)n1C	inconclusive: -1.01%	–
COc1ccc(CNC(=O)CSCc2c(F)cccc2Cl)cc1	inconclusive: 4.91%	–
COc1ccc(NC(=O)c2ccco2)c([N+](=O)[O-])c1	–	inconclusive: 11.6 µM [falling, partial curve, poor fit]
C/C(=N\Nc1nncc2ccccc12)c1cccc(OC(F)F)c1	–	inconclusive: 20 µM [falling, single point]
O=C(Nc1nc(-c2cc3ccccc3oc2=O)cs1)c1ccc(Br)o1	inactive	–

Structure (SMILES)	activity change, negative = inhibition	Potency
COC(=O)C1CCN(Cc2cn(-c3ccccc3)nc2-c2ccc3c(c2)OCO3)CC1	–	inconclusive: 10 µM [rising, partial curve, poor fit]
CC1CCN(c2c(NCc3ccc(C(=O)NCc4ccco4)cc3)c(=O)c2=O)CC1	inconclusive: -0.95%	–
CN1C(=O)NC(NC(=O)c2cccs2)(C(F)(F)F)C1=O (stereo unspecified)	inconclusive: -1.01%	–
NS(=O)(=O)c1ccc(CCNC(=O)c2ccccc2OCc2ccc(F)cc2)cc1	inconclusive: 3.12%	–
O=C(O)c1cccnc1SC1CC(=O)N(c2ccccc2)C1=O (stereo unspecified)	inactive	–
CC(=O)Oc1cccc(C(=O)Nc2ccc3c(c2)C(=O)N(CC2CCCO2)C3=O)c1 (stereo unspecified)	inactive	–
CCOC(=O)c1ccc(NC(=O)C2C3CCCCC32)cc1 (stereo unspecified)	inconclusive: -0.808%	–
Cn1c(=O)c(=O)n(C)c2cc(S(=O)(=O)N3CCN(c4cccc(C(F)(F)F)c4)CC3)ccc21	inconclusive: 6.05%	–
CC(C)C(=O)C1=Cc2cccc([N+](=O)[O-])c2OC1N1CCOCC1 (stereo unspecified)	–	inconclusive: 32.6 µM [falling, partial curve, poor fit]
COc1cccc(F)c1C(C[N+](=O)[O-])c1c(N)n(C)c(=O)n(C)c1=O (stereo unspecified)	–	inconclusive: 4.47 µM [falling, partial curve]
CCN1CCCc2cc(CN(CCN3CCOCC3)C(=S)Nc3cccc(OC)c3)ccc21	inactive	–
Cc1ccc(Oc2cc(C)nc(-c3ccccc3O)n2)cc1	inconclusive: 9.55%	–
CC(=O)N1c2c(cc(Br)cc2S(=O)(=O)N2CCN(c3ccccn3)CC2)CC1C (stereo unspecified)	inconclusive: 28.6%	–
CN(CCNC(=O)c1cn(C)c2ccc(S(=O)(=O)N(C)C)cc2c1=O)CCc1ccccc1	–	inconclusive: 23.1 µM [rising, partial curve, poor fit]
Cc1cccc(-c2c3c(=O)n(C)c(=O)n(C)c3cn2C(C)C)c1	inconclusive: -21.7%	–
Cc1cccc(/C=c2\s/c(=C\C(=O)C(C)(C)C)[nH]c2=O)c1	inactive	–
CC(Oc1ccc(Cl)cc1Cl)C(=O)OCn1nnc2ccccc2c1=O (stereo unspecified)	inconclusive: 2.52%	–
Cc1cc(C)c(C)c(S(=O)(=O)Nc2ccccc2C(=O)NCCCN2CCOCC2)c1C	inactive	–
O=C(c1ccco1)N1CCC(c2nc3c(nnn3Cc3ccc(F)cc3)c(=O)[nH]2)CC1	inactive	–
O=C(O)CCCCCN1C(=O)/C(=C\c2cn(-c3ccccc3)nc2-c2cccs2)SC1=S	–	inconclusive: 0.562 µM [falling, full curve, poor fit]
CC(C)N(Cc1ccccc1)C(=O)COC(=O)c1ccc2c(c1)OCCO2	–	inconclusive: 32.6 µM [falling, single point]

5 entries out of the list, arranged by length of the SMILES, smallest number first.
Structure (SMILES)	activity change, negative = inhibition	Potency
O=C(O)c1cccnc1SC1CC(=O)N(c2ccccc2)C1=O (stereo unspecified)	inactive	–
Cc1cccc(-c2c3c(=O)n(C)c(=O)n(C)c3cn2C(C)C)c1	inconclusive: -21.7%	–
COC(=O)C1CCN(Cc2cn(-c3ccccc3)nc2-c2ccc3c(c2)OCO3)CC1	–	inconclusive: 10 µM [rising, partial curve, poor fit]
Cc1cc(C)c(C)c(S(=O)(=O)Nc2ccccc2C(=O)NCCCN2CCOCC2)c1C	inactive	–
CN(CCNC(=O)c1cn(C)c2ccc(S(=O)(=O)N(C)C)cc2c1=O)CCc1ccccc1	–	inconclusive: 23.1 µM [rising, partial curve, poor fit]

The list continues.

Structure (SMILES)	activity change, negative = inhibition	Potency
CCOC(=O)C1=C(c2ccccc2)N=c2s/c(=C\c3ccco3)c(=O)n2C1c1cccs1 (stereo unspecified)	inconclusive: 6.22%	–
COc1cccc(N(C(=O)CCl)C(C(=O)NCCc2ccccc2)c2cccs2)c1 (stereo unspecified)	–	inconclusive: 16.4 µM [falling, partial curve]
Cc1ccc(SCCC(=O)Nc2nccs2)cc1	inconclusive: 1.3%	–
CN1C[C@@H]2C(c3ccc(Cl)nc3)C3(c4ccccc4)CC2(C3)[C@H]1c1ccccc1 (stereo partly specified)	inconclusive: 6.09%	–
Cc1nn(C)cc1CN1CCCC(C(=O)c2ccc(-c3ccccc3)cc2)C1 (stereo unspecified)	inconclusive: 9.19%	–
Cc1cc2c(cc1S(=O)(=O)N(C)c1ccccc1)n(C)c(=O)n2C	inconclusive: -0.696%	–
COc1ccc(S(=O)(=O)NCCc2ccccc2)cc1OC	inactive	–
O=[N+]([O-])c1ccc(OCC(O)CNCCNc2nccc(C(F)(F)F)n2)cc1 (stereo unspecified)	inactive	–
O=C(N/N=C/c1ccc([N+](=O)[O-])o1)c1cc(-c2cccc(Br)c2)nc2ccccc12	inconclusive: -8.53%	–
Cc1csc(SC(C)C(=O)NC2CCCCC2C)n1 (stereo unspecified)	inconclusive: -1.44%	–
Cc1c(C(=O)Nc2c(F)cccc2F)sc2ncnc(N3CCN(c4ccccc4)CC3)c12	inconclusive: -3.19%	–
CS(=O)(=O)c1ccccc1-c1csc(N2CCC(C(N)=O)CC2)n1	inconclusive: 2.27%	–
O=c1c(C(c2ccc(O)cc2)c2c(O)nc3n(c2=O)CCCS3)c(O)nc2n1CCCS2	inconclusive: -0.707%	–
CN(C)S(=O)(=O)c1cccc(NC(=S)N/N=C/c2ccco2)c1	inconclusive: 0.886%	–
CC(C)(C)OC1NS(=O)(=O)OCC1NCOC(Cl)(Cl)Cl (stereo unspecified)	inactive	–
Cc1ccc(Nc2cc(C(=O)NC3CCCC3)c3ccccc3n2)cc1C	inconclusive: 16.4%	–
Cc1noc(NS(=O)(=O)c2ccc(NC(=O)NC(C)(C(F)(F)F)C(F)(F)F)cc2)c1C	inconclusive: 2.04%	–
C=CC[C@H](CC(=O)NCCO)C(=O)NCCOC(=O)[C@@H](CC=C)Cc1ccc(F)cc1	inconclusive: -1.02%	–
Cc1cc(C(F)(F)F)nn1Cc1n[nH]c(=S)n1-c1ccc(Cl)cc1	–	inconclusive: 29.1 µM [rising, partial curve, poor fit]
Cc1noc(C)c1COc1ccc(C(=O)NNC(=O)c2ccccc2F)cc1	inconclusive: -0.917%	–
CCN1c2ccccc2NC2N=C(OC)C(c3ccccc3)C21 (stereo unspecified)	inconclusive: 29.5%	–

Structure (SMILES)	activity change, negative = inhibition	Potency
COc1cc(Nc2nc(-c3ccccc3)c3cc(C)ccc3n2)cc(OC)c1OC	inconclusive: 14.2%	–
CN(Cc1cn(C)nc1-c1ccc(Oc2ccccc2)cc1)CC1COCCO1 (stereo unspecified)	inactive	–
CC1(C)O[C@@H]2C[C@H]3[C@@H]4CCC5=CC(=O)C=C[C@]5(C)[C@@]4(F)[C@@H](O)C[C@]3(C)[C@]2(C(=O)CO)O1	inconclusive: -21.3%	–
C=C(C)CN1C(=O)c2ccccc2C1=O	–	inconclusive: 29.1 µM [falling, partial curve, poor fit]
CC1CC/C(=N/Nc2ccccc2)C(=O)N1 (stereo unspecified)	–	inconclusive: 16.4 µM [falling, partial curve]
COc1ccc(C2=NOC(C(=O)NCc3ccc(F)cc3)C2)cc1OC (stereo unspecified)	–	inconclusive: 16.4 µM [falling, partial curve, poor fit]
Cc1ccc(OCC(=O)N(Cc2cccc(F)c2)C2CCS(=O)(=O)C2)cc1 (stereo unspecified)	inconclusive: -15.8%	–
CC(C)CCn1cnc2c(oc3nc4c(cc32)CCCC4)c1=O	–	inconclusive: 10 µM [rising, partial curve, poor fit]
CCOc1ccccc1N(CC(=O)Nc1cccnc1)S(=O)(=O)c1ccc(C)cc1	–	inconclusive: 20 µM [rising, partial curve, poor fit]
O=C(Cn1nnc(-c2ccccc2Cl)n1)Nc1cccc(S(=O)(=O)N2CCCC2)c1	inconclusive: -16%	–
COc1ccc(NC(=O)c2ccc(C)cc2)cc1	inactive	–
O=C(O)COc1ccc2oc3ccccc3c2c1	inconclusive: 25.5%	–
CN1CCN(c2ccc(NS(=O)(=O)c3ccc(Cl)cc3)cn2)CC1	inactive	–
COc1ccccc1C(=O)NNC(=S)Nc1ccccc1	–	inconclusive: 22.4 µM [falling, partial curve]
COc1ccc(OC)c(-n2c(-c3ccc(O)cc3O)n[nH]c2=S)c1	–	inconclusive: 35.5 µM [falling, single point]
CCC1Oc2ccccc2N(CC(=O)NC2CCCCC2C)C1=O (stereo unspecified)	inactive	–
Fc1ccc(/C=N/Nc2ccccn2)cc1	inconclusive: -1.02%	–
Cc1ccc(C)c(-n2sc3ccc(F)cc3c2=O)c1	–	inconclusive: 20.6 µM [falling, single point]
